Changes are numbered by the printed parent chain. These are yes or no findings as the source states them, for the method shown. Some results given as binding are weak or reduced against the parent protein; the word gives no strength.
B1: 28G11_hIgG1 (antibody, V domains shown)
VH: EVKLVESGGGLVQPGGSLSLSCAASGFTFTDYYMSWVRQPPGKALEWLGFIRNKPNGYTTEYSASVKGRFTISRDNSQSILYLQMNVLRAEDSATYYCARYTGGGYFDYWGQGTTLTVSS
VL: DIQMTQTTSSLSASLGDRLTISCRASQDISNYLNWYQQKPDGTVKLLIYYTSRLHSGVPSRFSGSGSGTDYSLTISNLEQADIATYFCQQGDTLPWTFGGGTKLEIK
B2: 22F9_hIgG1 (antibody, V domains shown)
VH: QVQLQQPGAELVKPGASVKLSCKASGYTFTSYWMHWVKQRPGQGLEWIGMIHPNSGSTNYNEKFKSKATLTVDKSSSTAYMQLSSLTSEDSAVYYCAYYDYDGFFDVWGTGTTVTVSS
VL: DIVLTQSPASLDVSLGQRATISCRASKSVSTSGYSYMHWYQQKSGQPPKLLIYLASNLESGVPARFSGSGSGTHFTLNIHPVEEEDAATYYCQHSRELPYTFGGGTKLEIK
B3: 17G8_hIgG1 (antibody, V domains shown)
VH: B1 VH with P55A, V87A, T102K, G103L, Y109V, Q112T, L116V
VL: B1 VL with L19V, A81E, D92N
B4: 24E3_hIgG1 (antibody, V domains shown)
VH: QAYLQQSGAELVRPGASVKMSCKASGYTFTSYNMHWVKQTPRQGLEWIGAIYPGNGDTSYNPKFKGKATLTVDKSSSTAYMQLSSLTSEDSAVYFCTRWDWGGYFDVWGTGTTVTVSS
VL: B1 VL with L19V, A81E, E105G

Chains of the proteins cited; added tags and fusions are not shown. Lines headed by an entry give the natural chain unless they say otherwise; changes in a name come on top.
UniProt Q86YC3: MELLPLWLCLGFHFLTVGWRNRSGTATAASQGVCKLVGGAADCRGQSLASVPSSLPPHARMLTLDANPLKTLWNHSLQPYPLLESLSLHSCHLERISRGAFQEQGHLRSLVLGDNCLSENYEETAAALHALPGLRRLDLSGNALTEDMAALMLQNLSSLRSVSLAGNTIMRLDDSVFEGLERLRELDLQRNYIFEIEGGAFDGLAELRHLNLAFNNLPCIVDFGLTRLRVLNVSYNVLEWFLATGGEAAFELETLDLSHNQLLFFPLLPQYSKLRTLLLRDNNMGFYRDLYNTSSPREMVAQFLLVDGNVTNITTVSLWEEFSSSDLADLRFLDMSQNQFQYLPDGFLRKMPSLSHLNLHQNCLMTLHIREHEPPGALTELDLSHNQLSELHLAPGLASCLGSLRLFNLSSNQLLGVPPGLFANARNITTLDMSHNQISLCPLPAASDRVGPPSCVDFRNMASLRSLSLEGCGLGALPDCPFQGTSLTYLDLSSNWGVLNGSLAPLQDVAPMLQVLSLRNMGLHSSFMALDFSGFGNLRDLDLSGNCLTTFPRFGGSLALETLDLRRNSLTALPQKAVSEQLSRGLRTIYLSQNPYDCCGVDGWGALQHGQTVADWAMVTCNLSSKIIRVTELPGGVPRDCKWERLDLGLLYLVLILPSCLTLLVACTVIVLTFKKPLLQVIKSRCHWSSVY

Biological target: LRRC33 and human LAP-TGFβ1 co-expressed on P3U1 cells (human) (UniProt Q86YC3)
Assay: flow cytometry, P3U1 cells

Row | Binder | binding
1 | B1 | binds
2 | B2 | binds
3 | B3 | binds
4 | B4 | binds

Reference: patent US20220017612A1
